Patent publication US10300052B2, “Methods for increasing CFTR activity” (THE UAB RESEARCH FOUNDATION, priority 2012, dated 2019)
At least one structure is not confirmed: it was looked up by name or label, or the drawing left a doubt.

System: porcine trachea CFTR−/−
Assay: μOCT imaging of airway epithelial function in porcine trachea, CFTR-/- animals
Details: acetylcholine 100 μM as positive control (FIG. 7G)
Description: FIGS. 7A-7H show the effects of CFTR activators on airway epithelial function in intact porcine trachea by μOCT. FIGS. 7A-7B show representative μOCT images for a CFTR−/− (FIG. 7A) and CFTR+/+ (FIG. 7B) animal. FIGS. 7C-7F, respectively, show ASL depth (FIG. 7C), PCL depth (FIG. 7D), CBF (FIG. 7E) and MCT (FIG. 7F) measurements derived from μOCT images from CFTR−/− and CFTR+/+ animals. FIGS. 7G and 7H show the response of epithelial functional parameters, namely ASL depth and MCT in CFTR−/− (FIG. 7G) and CFTR+/+(FIG. 7H) animals in response to sequential pharmacologic intervention by ivacaftor (10 μM), forskolin (100 nM) and acetylcholine (100 μM).
To further investigate the role of CFTR activators in modulating airway epithelial cell function, CFTR activators were studied in combination with porcine trachea. In this example, porcine trachea from animals having a mutated CFTR (CFTR (−/−) and from animals having a WT-CFTR (CFTR+/+) were evaluated for ASL depth, PCL depth, CBF and MCT. The results are shown in FIGS. 7A-7H.
FIGS. 7G and 7H show the response of epithelial functional parameters, namely ASL depth, CBF and MCT in CFTR−/− and CFTR+/+ animals in response to sequential pharmacologic intervention by ivacaftor (10 μM), forskolin (100 nM) and acetylcholine (100 μM); in this experiment, acetylcholine served as a positive control to induce glandular extrusion in CF tissue). […]

With `CC(=O)OCC[N+](C)(C)C` [acetylcholine] the “response of epithelial functional parameters” value was “positive response”.
